In EP4831170A1, “NITROGEN HETEROCYCLIC COMPOUND AND USE THEREOF” (dated 2026):
The structures given here were assigned with low confidence; some may be wrong.

Amino acid sequences for entries named in this document (tags omitted).
UniProt P10415, whole entry: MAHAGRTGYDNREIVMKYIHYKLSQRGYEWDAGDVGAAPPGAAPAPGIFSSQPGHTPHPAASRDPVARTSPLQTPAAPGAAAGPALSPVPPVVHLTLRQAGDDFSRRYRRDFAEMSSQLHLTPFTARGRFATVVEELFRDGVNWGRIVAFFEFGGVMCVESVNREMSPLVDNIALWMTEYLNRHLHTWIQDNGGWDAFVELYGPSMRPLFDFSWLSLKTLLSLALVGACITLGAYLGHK
UniProt Q07817, whole entry: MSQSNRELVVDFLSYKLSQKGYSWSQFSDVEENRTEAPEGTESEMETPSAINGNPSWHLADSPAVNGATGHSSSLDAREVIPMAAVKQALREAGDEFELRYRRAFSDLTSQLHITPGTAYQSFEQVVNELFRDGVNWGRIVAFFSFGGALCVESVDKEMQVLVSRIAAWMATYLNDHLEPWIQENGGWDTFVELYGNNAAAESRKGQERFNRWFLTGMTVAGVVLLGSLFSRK

Key:
[1] = test system: senescent cells (A549 cells); test: Senescent cell viability assay (CellTiter-Glo), etoposide-induced senescent A549 cells; conditions: read-out: IC50 (µM, senescent cells), A549 cells made senescent with etoposide (10 µM), 72 h incubation
[2] = Kinetic solubility in PBS, LC-MS/MS; conditions: 100 mM PBS, 1 hour shaking at room temperature
[3] = test system: oxygen-induced retinopathy (OIR) mouse model; test: Oxygen-induced retinopathy (OIR) mouse model; conditions: intravitreal (IVT), 1 µL of 200 µM on P12, read on P17; Figure 1
[4] = test system: imiquimod-induced psoriasis mouse model; test: Imiquimod-induced psoriasis mouse model; conditions: daily topical application, 1 mg/kg; day 7; Figure 2
[5] = test system: bleomycin-induced scleroderma model; test: Bleomycin-induced scleroderma model; conditions: daily topical application, 1 mg/kg; 4 weeks; Figure 3
[6] = test system: animal model of idiopathic pulmonary fibrosis (IPF); test: Animal model of idiopathic pulmonary fibrosis (bleomycin); conditions: IP 5 mg/kg from day 7 for 3 weeks, day 28, Figure 4
[7] = test system: animal model of osteoarthritis; test: Animal model of osteoarthritis (anterior cruciate ligament transection); conditions: intra-articular injection; Figure 5
[8] = test system: rabbit ear hypertrophic scar animal model; test: Rabbit ear hypertrophic scar model; conditions: intralesional injection 150 µM, 100 µL, once a week, four times; Figure 6
[9] = biological target: BCL-2 (Homo sapiens, UniProt P10415); test: SPR affinity measurement (Biacore 8K), Bcl-2; conditions: read-out: KD (M) Bcl-2, 25 °C, single cycle kinetics, 1:1 model
[10] = biological target: BCL-XL (Homo sapiens, UniProt Q07817); test: SPR affinity measurement (Biacore 8K), Bcl-xL; conditions: read-out: KD (M) Bcl-xL, 25 °C, single cycle kinetics, 1:1 model

Row | SMILES | IC50 [1] | other results
1 | Cc1c(-c2ccc(N3CCc4ccnc(C(=O)Nc5nc6ccccc6s5)c4C3)nc2C(=O)O)cnn1CC1CC2(CCC2)C1 | 0.2 to 1 µM | 
2 | Cc1c(-c2ccc(N3CCc4cncc(C(=O)Nc5nc6ccccc6s5)c4C3)nc2C(=O)O)cnn1Cc1cccc(C(F)(F)F)c1 | 1 to 10 µM | 
3 | Cc1c(-c2ccc(N3CCc4nccc(C(=O)Nc5nc6ccccc6s5)c4C3)nc2C(=O)O)cnn1CC12CC3CC(CC(C3)C1)C2 | 1 to 10 µM | 
4 | CN(CCc1ccc(N2CCc3ccnc(C(=O)Nc4nc5ccccc5s4)c3C2)nc1C(=O)O)CC12CC3CC(CC(C3)C1)C2 | 1 to 10 µM | 
5 | Cc1c(-c2ccc(N3CCc4ccnc(C(=O)Nc5nc6ccccc6s5)c4C3)nc2C(=O)OCOC(=O)C(C)C)cnn1CC12CC3CC(CC(C3)C1)C2 | < 0.2 µM | 
6 | Cc1c(Cc2ccccc2)ncn1-c1ccc(N2CCc3ccnc(C(=O)Nc4nc5ccccc5s4)c3C2)nc1C(=O)O | 1 to 10 µM | 
7 | Cc1c(-c2ccc(N3CCc4ccnc(C(=O)Nc5nc6ccccc6s5)c4C3)nc2C(=O)N2CCN(CCN)CC2)cnn1CC12CC3CC(CC(C3)C1)C2 | 0.2 to 1 µM | 
8 | Cc1c(-c2ccc(N3CCc4ccnc(C(=O)Nc5nc6ccccc6s5)c4C3)nc2C(=O)N2CCN(C)CC2)cnn1CC12CC3CC(CC(C3)C1)C2 | 0.2 to 1 µM | 
9 | Cc1c(-c2ccc(N3CCc4ccnc(C(=O)Nc5nc6ccccc6s5)c4C3)nc2C(=O)O)cnn1Cc1cc(F)cc(F)c1 | < 0.2 µM | 
10 | Cc1c(-c2ccc(N3CCc4cncc(C(=O)Nc5nc6ccccc6s5)c4C3)nc2C(=O)O)cnn1CC12CC3CC(CC(C3)C1)C2 | 0.2 to 1 µM | Kinetic solubility [2]: 2.07 µM
11 | Cc1c(-c2ccc(N3CCc4ccnc(C(=O)Nc5nc6ccccc6s5)c4C3)nc2C(=O)N2CCNC(=O)C2)cnn1CC12CC3CC(CC(C3)C1)C2 | < 0.2 µM | 
12 | Cc1c(-c2ccc(N3CCc4ccnc(C(=O)Nc5nc6ccccc6s5)c4C3)nc2C(=O)O)cnn1Cc1cccc(F)c1 | < 0.2 µM | 
13 | Cc1c(-c2ccc(N3CCc4ccnc(C(=O)Nc5nc6ccccc6s5)c4C3)nc2C(=O)N2CCC(CO)CC2)cnn1CC12CC3CC(CC(C3)C1)C2 | < 0.2 µM | 
14 | Cc1c(-c2ccc(N3CCc4ccnc(C(=O)Nc5nc6ccccc6s5)c4C3)nc2C(=O)O)cnn1CC1CC2(C1)CC(F)(F)C2 | 0.2 to 1 µM | 
15 | O=C(O)c1nc(N2CCc3ccnc(C(=O)Nc4nc5ccccc5s4)c3C2)ccc1CCOCC12CC3CC(CC(C3)C1)C2 | 1 to 10 µM | 
16 | Cc1c(-c2ccc(N3CCc4ccnc(C(=O)Nc5nc6ccccc6s5)c4C3)nc2C(=O)N2CCC(CCOP(=O)(O)O)CC2)cnn1Cc1cccc(C(F)(F)F)c1 | < 0.2 µM | 
17 | Cc1c(-c2ccc(N3CCc4ccnc(C(=O)Nc5nc6ccccc6s5)c4C3)nc2C(=O)N2CCC(CCOP(=O)(O)O)CC2)cnn1CC12CC3CC(CC(C3)C1)C2 | < 0.2 µM | 
18 | Cc1c(-c2ccc(N3CCc4cncc(C(=O)Nc5nc6ccccc6s5)c4C3)nc2C(=O)N2CCC(CCO)CC2)cnn1CC12CC3CC(CC(C3)C1)C2 | 0.2 to 1 µM | 
19 | Cc1c(-c2ccc(N3CCc4ccnc(C(=O)Nc5nc6ccccc6s5)c4C3)nc2C(=O)O)cnn1Cc1ccc2ccccc2c1 | 0.2 to 1 µM | 
20 | Cc1c(-c2ccc(N3CCc4ccnc(C(=O)Nc5nc6ccccc6s5)c4C3)nc2C(=O)O)cnn1Cc1cccc(C2CC2)c1 | 0.2 to 1 µM | 
21 | Cc1cccc(Cn2ncc(-c3ccc(N4CCc5ccnc(C(=O)Nc6nc7ccccc7s6)c5C4)nc3C(=O)O)c2C)c1 | < 0.2 µM | 
22 | O=C(O)c1nc(N2CCc3ccnc(C(=O)Nc4nc5ccccc5s4)c3C2)ccc1C1CCN(CC23CC4CC(CC(C4)C2)C3)C1 (stereo not drawn) | 1 to 10 µM | 
23 | O=C(O)c1nc(N2CCc3ccnc(C(=O)Nc4nc5ccccc5s4)c3C2)ccc1CCOCc1ccccc1 | 1 to 10 µM | 
24 | CN(C)CC#Cc1ccc(OCCCc2sc(N3CCc4ccnc(C(=O)Nc5nc6ccccc6s5)c4C3)nc2C(=O)O)c(F)c1 | < 0.2 µM | 
25 | Cc1c(-c2ccc(N3CCc4ccnc(C(=O)Nc5nc6ccccc6s5)c4C3)nc2C(=O)O)cnn1Cc1ccc(F)cc1 | < 0.2 µM | 
26 | Cc1c(-c2ccc(N3CCc4ccnc(C(=O)Nc5nc6ccccc6s5)c4C3)nc2C(=O)O)cnn1CC1CCC(F)(F)CC1 | < 0.2 µM | 
27 | Cc1c(-c2ccc(N3CCc4ccnc(C(=O)Nc5nc6ccccc6s5)c4C3)nc2C(=O)O)cnn1Cc1cccc(C(F)(F)F)c1 | < 0.2 µM | 
28 | Cc1c(CC2CCCCC2)ncn1-c1ccc(N2CCc3ccnc(C(=O)Nc4nc5ccccc5s4)c3C2)nc1C(=O)O | 0.2 to 1 µM | 
29 | Cc1c(-c2ccc(N3CCc4ccnc(C(=O)Nc5nc6ccccc6s5)c4C3)nc2C(=O)O)cnn1CC1CCCCC1 | < 0.2 µM | Kinetic solubility [2]: 2.57 µM
30 | Cc1c(-c2ccc(N3CCc4ccnc(C(=O)Nc5nc6ccccc6s5)c4C3)nc2C(=O)O)cnn1CC12C3C4C5C3C1C5C42 (stereo not drawn) | 0.2 to 1 µM | 

More lines, main results first:

Row | IC50 [1] | SMILES | other results
31 | 0.2 to 1 µM | Cc1c(-c2ccc(N3CCc4ccnc(C(=O)Nc5nc6ccccc6s5)c4C3)nc2C(=O)O)cnn1Cc1cccc(C(C)(C)C)c1 | 
32 | < 0.2 µM | Cc1c(-c2ccc(N3CCc4ccnc(C(=O)Nc5nc6ccccc6s5)c4C3)nc2C(=O)O)cnn1Cc1cccc(Cl)c1 | 
33 | 1 to 10 µM | O=C(O)c1nc(N2CCc3ccnc(C(=O)Nc4nc5ccccc5s4)c3C2)sc1-c1cnn(CC23CC4CC(CC(C4)C2)C3)c1 | 
34 | 0.2 to 1 µM | Cc1c(-c2ccc(N3CCc4ccnc(C(=O)Nc5nc6ccccc6s5)c4C3)nc2C(=O)O)cnn1Cc1ccccc1F | 
35 | 1 to 10 µM | Cc1c(-c2sc(N3CCc4ccnc(C(=O)Nc5nc6ccccc6s5)c4C3)nc2C(=O)O)cnn1CC12CC3CC(CC(C3)C1)C2 | 
36 | < 0.2 µM | Cc1c(-c2ccc(N3CCc4ccnc(C(=O)Nc5nc6ccccc6s5)c4C3)nc2C(=O)O)cnn1CC12CC3CC(CC(C3)C1)C2 | avascular area [3]: statistically significant improvement; neovascularization [3]: statistically significant improvement; epidermal thickness in HE staining [4]: decreased; erythema and scaling scores [4]: reduced; collagen fiber deposition in the skin (Masson staining) [5]: alleviated; dermal thickness [5]: significantly improved; pathology scores ([6]; H&E and Masson staining): statistically significant improvements; WBC ([6]; alveolar lavage fluid): statistically significant improvements; HYP ([6]; lung tissue): statistically significant improvements; pathological score of Safranin O/Fast Green staining [7]: statistically significant improvements; plantar mechanical pain threshold [7]: statistically significant improvements; Scar Elevation Index [8]: statistically significant improvement; Kd [9]: 2.63e-08 M; Kd [10]: 1.77e-11 M
37 | < 0.2 µM | Cc1c(-c2ccc(N3CCc4ccnc(C(=O)Nc5nc6ccccc6s5)c4C3)nc2C(=O)O)cnn1Cc1ccccc1 | Kinetic solubility [2]: 7.81 µM
38 | < 0.2 µM | Cc1c(-c2ccc(N3CCc4ccnc(C(=O)Nc5nc6ccccc6s5)c4C3)nc2C(=O)O)cnn1Cc1cc(F)cc(Cl)c1 | 
39 | 0.2 to 1 µM | Cc1c(-c2ccc(N3CCc4ccnc(C(=O)Nc5nc6ccccc6s5)c4C3)nc2C(=O)N2CCC(CCO)CC2)cnn1Cc1cccc(C(F)(F)F)c1 | 
40 | < 0.2 µM | Cc1c(CC23CC4CC(CC(C4)C2)C3)ncn1-c1ccc(N2CCc3ccnc(C(=O)Nc4nc5ccccc5s4)c3C2)nc1C(=O)O | 
41 | < 0.2 µM | Cc1c(-c2ccc(N3CCc4ccnc(C(=O)Nc5nc6ccccc6s5)c4C3)nc2C(=O)O)cnn1Cc1cc(F)cc(C(F)(F)F)c1 | 
42 | < 0.2 µM | Cc1c(-c2ncc(N3CCc4ccnc(C(=O)Nc5nc6ccccc6s5)c4C3)nc2C(=O)O)cnn1CC12CC3CC(CC(C3)C1)C2 | 
43 | 0.2 to 1 µM | Cc1nc(-c2ccc(N3CCc4ccnc(C(=O)Nc5nc6ccccc6s5)c4C3)nc2C(=O)O)c(C)n1CC12CC3CC(CC(C3)C1)C2 | 
44 | < 0.2 µM | Cc1c(-c2ccc(N3CCc4ccnc(C(=O)Nc5nc6ccccc6s5)c4C3)nc2C(=O)O)cnn1Cc1cccc(OC(F)(F)F)c1 | 
45 | < 0.2 µM | Cc1c(-c2ccc(N3CCc4ccnc(C(=O)Nc5nc6ccccc6s5)c4C3)nc2C(=O)N2CCC(CCO)CC2)cnn1CC12CC3CC(CC(C3)C1)C2 | 
46 | 0.2 to 1 µM | Cc1c(CC2CCC(F)(F)CC2)ncn1-c1ccc(N2CCc3ccnc(C(=O)Nc4nc5ccccc5s4)c3C2)nc1C(=O)O | 
